Earlier results, collected in patent US8614315B2, “Cefdinir and cefixime formulations and uses thereof” (priority 2010, dated 2013).
The name of at least one read-out is uncertain.

Conditions: pH 4.2

## C=CC1=C(C(=O)O)N2C(=O)[C@@H](NC(=O)/C(=N\OCC(=O)O)c3csc(N)n3)[C@H]2SC1 [Cefixime, (6R,7R)-7-{[2-(2-amino-1,3-thiazol-4-yl)-2-(carboxymethyloxyimino)acetyl]amino}-3-ethenyl-8-oxo-5-thia-1-azabicyclo [4.2.0]oct-2-en-2-carboxylic acid]
  solubility when the pH of the solution is increased to 4.2: 18 mg/mL
